Data taken from PubChem BioAssay AID2685 (National Center for Advancing Translational Sciences (NCATS), 2010).
The other results are listed elsewhere or left out. Further columns of the screen follow, without active or inactive calls. Compounds called inactive in the main read-out are mostly missing here. Words in brackets tell the shape of the fitted curve; partial curves, single points and poor fits give uncertain potencies.

Test: qHTS Assay for Lipid Storage Modulators in Drosophila S3 Cells;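 as to cell number change: cells counted by Cell Tracker Red CMTPX staining in the red channel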
Settings: BODIPY lipid droplet fluorescence, 18-24 h; for cell number change: measured here: cell count max response, cells fed with added oleic acid
Outline: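 Laser-scanning cytometry quantifies lipid droplet accumulation (500–530 nm total intensity; droplet/cell object ratio) in oleic acid-fed (400 uM added) Drosophila S3 cells treated with a concentration series. 20 uM Triacsin C defined 100% inhibition.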

[1] = measured here: lipid fluorescence (Fed channel) AC50, cells fed with added oleic acid
[2] = measured here: cell number channel AC50, cells fed with added oleic acid

| SMILES | cell number change [%] | AC50 [1] | AC50 [2] |
| --- | --- | --- | --- |
| COc1cccc(C(=O)Nc2ccccc2C(=O)NC2CC2)c1 | -6.23 | 29.1 µM [rising, single point] | – |
| CCn1c2ccccc2n2c(=O)c(=O)n(CC(=O)Nc3ccc(C(C)C)cc3)nc12 | 2.1 | 1.16 µM [falling, single point] | 0.651 µM [falling, single point] |
| Cc1nc2ncnn2c(N2CCN(C(=O)c3cccc(F)c3)CC2)c1Cc1ccccc1 | 8.25 | 0.291 µM [rising, full curve, poor fit] | – |
| COCCN(Cc1ccccc1)C(=S)Nc1ccc(OC(F)F)cc1 | -38.4 | 0.206 µM [falling, full curve] | – |
| c1ccc2c(c1)oc1c(Nc3ccc(CN4CCOCC4)cc3)ncnc12 | -8.57 | 2.91 µM [rising, full curve] | – |
| CCCCNC(=O)CSc1nc2ccc(NC(=O)CSc3nnc(COc4ccccc4C)n3C)cc2s1 | – | 1.03 µM [rising, partial curve] | 0.517 µM [rising, full curve, poor fit] |
| CCOC(=O)C1(Cc2cccc(Cl)c2)CCCN(C(=O)c2cccc(C)n2)C1 (stereo not given) | 13.4 | 13 µM [rising, partial curve] | – |
| CC(=O)Oc1ccc(N2C(=O)C3C(C2=O)C(C(=O)c2ccc(Cl)cc2)N2CCCC32)cc1 (stereo not given) | -32.3 | 20.6 µM [falling, single point] | 32.6 µM [falling, single point] |
| Cc1ccc2nc(N(CCCN(C)C)C(=O)c3ccc(S(=O)(=O)N4CCCCCC4)cc3)sc2c1 | -1.53 | 0.112 µM [rising, full curve, poor fit] | – |
| Cc1cc(NC(=O)COC(=O)C2COc3ccccc3O2)no1 (stereo not given) | -15.6 | 0.116 µM [rising, single point] | – |
| COc1ccc(CNC(=O)CN2C(=O)C3CCCN3c3ncc(Cl)cc32)cc1 (stereo not given) | – | – | 1.16 µM [rising, partial curve] |
| O=C(Nc1ccccc1)c1ccccc1NC(=O)[C@H]1CCCC[C@H]1C(=O)O | -3.86 | 29.1 µM [rising, single point] | – |
| COc1ccc(C2Oc3ccccc3C3=C2C(c2cccs2)n2ncnc2N3)cc1 (stereo not given) | – | – | 0.92 µM [rising, full curve, poor fit] |
| CC1CCCN(CC(=O)Nc2cc(S(=O)(=O)N3CCOCC3)ccc2N2CCCC2)C1 (stereo not given) | -10.2 | 4.11 µM [falling, partial curve] | – |
| O=C(c1cccc(S(=O)(=O)N2CCOCC2)c1)N1CCOCC1 | – | 1.16 µM [rising, partial curve] | – |
| Clc1c(OCCCn2ccnc2)ccc2ccccc12 | -53.7 | 1.64 µM [falling, partial curve] | 29.1 µM [falling, single point] |
| CCn1c(C)nnc1SCC(=O)Nc1ccc(N2CCOCC2)cc1 | -7.73 | 29.1 µM [rising, single point] | – |
| CCOC(=O)Cc1cnc(NC(=O)CSc2nc(N)cc(=O)[nH]2)s1 | 61.9 | 29.1 µM [rising, single point] | 3.26 µM [rising, full curve] |
| Fc1ccc(CNc2ncnc3cc(Cl)ccc23)cc1 | -43.8 | 23.1 µM [falling, single point] | 20.6 µM [falling, single point] |

| SMILES | cell number change [%] | AC50 [1] | AC50 [2] |
| --- | --- | --- | --- |
| CCC(NS(=O)(=O)c1cn(C)nc1C)c1ccccc1 (stereo not given) | 24.2 | 35.5 µM [rising, single point] | – |
| CCCCCCn1nc(C(=O)N(CCOC)c2c(N)n(CCCC)c(=O)[nH]c2=O)c2ccccc2c1=O | 62.2 | 11.6 µM [rising, partial curve] | 11.6 µM [rising, partial curve, poor fit] |
| O=c1c(/C=C(\O)c2ccc(F)cc2)nc2ccccc2n1-c1ccccc1 | 106 | 2.59 µM [rising, partial curve] | 23.1 µM [rising, partial curve] |
| CCn1c(=O)c2c3c(sc2n2cnnc12)CCC3 | 8.73 | 1.84 µM [rising, partial curve] | – |
| O=C(COC(=O)c1cc(=O)[nH]c(=O)[nH]1)Nc1cccc(S(=O)(=O)N2CCCCC2)c1 | -48.1 | – | 29.1 µM [falling, single point] |
| COc1ccc(N2CCN(C(=O)CS(=O)Cc3nc(-c4ccc(OC)c(OC)c4)oc3C)CC2)cc1 (stereo not given) | -14.9 | – | – |
| COc1ccc(Cc2nnc(Cl)c3ccccc23)cc1OC | -17.1 | 0.58 µM [falling, single point] | 0.411 µM [falling, full curve, poor fit] |
| N=c1n(CCO)c2ccccc2n1Cc1ccc(Cl)cc1 | – | 6.51 µM [rising, single point] | 6.51 µM [rising, single point] |
| COc1ccc(OCC(=O)Nc2ccc3nc(C)sc3c2)cc1 | – | – | 0.82 µM [falling, single point] |
| Cc1ccccc1-c1noc(CCC(=O)NCCc2ccccc2)n1 | 45.9 | – | 29.1 µM [rising, single point] |
| Cc1nc(N)sc1-c1csc(Nc2cccc(O)c2)n1 | -53 | 5.8 µM [falling, full curve] | 14.6 µM [falling, single point] |
| CCOc1ccc2oc(C(=O)N3CCN(c4ccccc4OCC)CC3)c(C)c2c1 | – | – | 3.66 µM [rising, single point] |
| Cn1c(CNC(=O)Cc2ccc3c(c2)OCO3)nnc1SCc1ccccc1 | -1.4 | – | – |
| CCCCn1nnnc1SCC(=O)N1CCOCC1 | -62.4 | 29.1 µM [falling, single point] | 5.8 µM [falling, full curve] |
| O=C(Nc1ccc2c(c1)OCCO2)N1CCOCC1 | – | 2.31 µM [rising, partial curve] | – |
| O=C(O)c1ccc(CSc2nc3ccc(NC(=O)c4ccccc4C(=O)O)cc3s2)cc1 | -33.1 | 0.00461 µM [falling, full curve, poor fit] | 0.58 µM [falling, partial curve] |
| CCOC(=O)N1CCN(C(=O)/C=C/c2ccc3c(c2)OCO3)CC1 | – | 0.259 µM [rising, full curve, poor fit] | – |
| CC(=O)c1cccc(NC(=O)C(C)OC(=O)CNC(=O)c2ccc(C)s2)c1 (stereo not given) | -32.1 | 0.116 µM [falling, full curve, poor fit] | 0.082 µM [falling, full curve, poor fit] |
| C/C(=N\O)C1(C)N(O)C(C)(C)C(c2ccc(F)cc2)=[N+]1[O-] (stereo not given) | 18.1 | 0.411 µM [rising, full curve, poor fit] | – |

16 neighbouring compounds out of the list so far, quoted:

| SMILES | cell number change [%] | AC50 [1] | AC50 [2] |
| --- | --- | --- | --- |
| O=c1c(/C=C(\O)c2ccc(F)cc2)nc2ccccc2n1-c1ccccc1 | 106 | 2.59 µM [rising, partial curve] | 23.1 µM [rising, partial curve] |
| CCn1c(=O)c2c3c(sc2n2cnnc12)CCC3 | 8.73 | 1.84 µM [rising, partial curve] | – |
| O=C(COC(=O)c1cc(=O)[nH]c(=O)[nH]1)Nc1cccc(S(=O)(=O)N2CCCCC2)c1 | -48.1 | – | 29.1 µM [falling, single point] |
| COc1ccc(N2CCN(C(=O)CS(=O)Cc3nc(-c4ccc(OC)c(OC)c4)oc3C)CC2)cc1 (stereo not given) | -14.9 | – | – |
| COc1ccc(Cc2nnc(Cl)c3ccccc23)cc1OC | -17.1 | 0.58 µM [falling, single point] | 0.411 µM [falling, full curve, poor fit] |
| N=c1n(CCO)c2ccccc2n1Cc1ccc(Cl)cc1 | – | 6.51 µM [rising, single point] | 6.51 µM [rising, single point] |
| COc1ccc(OCC(=O)Nc2ccc3nc(C)sc3c2)cc1 | – | – | 0.82 µM [falling, single point] |
| Cc1ccccc1-c1noc(CCC(=O)NCCc2ccccc2)n1 | 45.9 | – | 29.1 µM [rising, single point] |
| Cc1nc(N)sc1-c1csc(Nc2cccc(O)c2)n1 | -53 | 5.8 µM [falling, full curve] | 14.6 µM [falling, single point] |
| CCOc1ccc2oc(C(=O)N3CCN(c4ccccc4OCC)CC3)c(C)c2c1 | – | – | 3.66 µM [rising, single point] |
| Cn1c(CNC(=O)Cc2ccc3c(c2)OCO3)nnc1SCc1ccccc1 | -1.4 | – | – |
| CCCCn1nnnc1SCC(=O)N1CCOCC1 | -62.4 | 29.1 µM [falling, single point] | 5.8 µM [falling, full curve] |
| O=C(Nc1ccc2c(c1)OCCO2)N1CCOCC1 | – | 2.31 µM [rising, partial curve] | – |
| O=C(O)c1ccc(CSc2nc3ccc(NC(=O)c4ccccc4C(=O)O)cc3s2)cc1 | -33.1 | 0.00461 µM [falling, full curve, poor fit] | 0.58 µM [falling, partial curve] |
| CCOC(=O)N1CCN(C(=O)/C=C/c2ccc3c(c2)OCO3)CC1 | – | 0.259 µM [rising, full curve, poor fit] | – |
| CC(=O)c1cccc(NC(=O)C(C)OC(=O)CNC(=O)c2ccc(C)s2)c1 (stereo not given) | -32.1 | 0.116 µM [falling, full curve, poor fit] | 0.082 µM [falling, full curve, poor fit] |

Later entries:

| SMILES | cell number change [%] | AC50 [1] | AC50 [2] |
| --- | --- | --- | --- |
| COc1ccc(NC(=O)C2CC(=O)N(c3cccc(C)c3C)C2)cc1 (stereo not given) | 6.93 | 29.1 µM [falling, single point] | – |
| COc1ccc(-c2nnc(SCC(=O)NNC(=O)c3ccc(C)cc3)o2)cc1 | 18.5 | 5.8 µM [falling, single point] | 0.146 µM [falling, full curve, poor fit] |
| CC(C)CCOP(=O)(c1ccc(N(C)C)cc1)C(O)c1ccccn1 (stereo not given) | -53.1 | – | – |
| Fc1cccc2sc(Nc3nc4c(F)cccc4s3)nc12 | -7.27 | – | – |
| COc1c(Cl)cc(Cl)cc1C(=O)Nc1ccc(C(=O)O)cc1 | 7.97 | 2.91 µM [rising, partial curve] | – |
| Clc1ccc(-c2nc(Cc3ccccc3Cl)no2)cc1 | 0.418 | 0.13 µM [falling, full curve, poor fit] | – |
| O=C(NN1CCCCC1)c1cccc(COc2ccc(Cl)cc2)c1 | -36.6 | 29.1 µM [falling, single point] | 3.26 µM [falling, full curve] |
| O=C(CSc1nc2cc(C(F)(F)F)ccc2n1Cc1ccccc1)NC1CCS(=O)(=O)C1 (stereo not given) | -43.8 | – | 32.6 µM [falling, partial curve] |
| O=C(Nc1nc2ccccc2c2nc3ccccc3n12)c1ccc(F)cc1 | 7.28 | – | – |
| CCN(/C=N/c1sc2c(c1C#N)CC(C)(C)NC2(C)C)CC | -42.9 | 29.1 µM [falling, single point] | 3.66 µM [falling, full curve] |
| O=C(CCN(NC(=O)c1ccccc1)C1=NS(=O)(=O)c2ccccc21)NC1CCCCC1 | 2.72 | 0.82 µM [falling, full curve, poor fit] | – |
| O=C(NC1CCN(Cc2ccccc2)CC1)c1cc(-c2ccccn2)nc2ccccc12 | 50.8 | 1.46 µM [rising, partial curve] | 20.6 µM [rising, single point] |
| COc1ccc(C(=O)N/N=C2\CCc3ccccc32)cc1OC | 37.8 | – | 0.461 µM [rising, full curve, poor fit] |
| CCOC(=O)C1CCN(c2c(NCc3ccc(C(=O)NC4CCCC4)cc3)c(=O)c2=O)CC1 | 7.61 | – | – |
| COc1ccccc1NC(=O)Oc1cccc(OC(=O)c2ccccc2)c1 | 2.24 | 0.92 µM [rising, single point] | – |
| O=C(NCC(=O)N1CCCCCCC1)c1ccccc1Cl | 8.88 | – | – |
| N#CCC(=O)Nc1ccc(C(=O)OCC(=O)Nc2sc3c(c2C#N)CCCC3)cc1 | -56.1 | – | 29.1 µM [falling, single point] |
| N#Cc1c(N)nc2c(c1N)CC(CO)O2 (stereo not given) | 136 | 0.731 µM [rising, partial curve, poor fit] | 18.4 µM [rising, partial curve, poor fit] |
